The other results are listed elsewhere or left out.
Assay: GFP drop in mixed WT/humanized-ribosome E. coli culture – GFP/RFP fluorescence, OD600, single point, bacterial rRNA inhibitor project, primary screen (AID 720706)
Details: E. coli WT GFP vs humanized-ribosome RFP mutants, 24 h; OD600 change: measured here: OD600 growth, DMSO median 0, no signal -100; RFP signal change: measured here: RFP humanized mutant strains, DMSO median 0, no signal -100, concentration not given here

Compound | OD600 change [%] | RFP signal change [%]
COc1ccccc1OP(C)(=O)Nc1ccccc1Br (stereo unspecified) | 1.84 | 0.9
Nc1ccc([As](=O)(O)c2ccc(N)cc2)cc1 | -0.266 | 1.21
C[N+]1=C2C=CC=CC=C2SC12C([N+](=O)[O-])=CC([N+](=O)[O-])=C[C-]2[N+](=O)[O-] (stereo unspecified) | 6.58 | -5.23
c1cc(-c2nn[nH]n2)ccc1-c1nn[nH]n1 | 14.1 | -1.34
CC(C)c1nc(Nc2ccccc2)n(P(=O)(N(C)C)N(C)C)n1 | -1.77 | 1.99
CN(C)C(=O)c1c([N+](=O)[O-])cc([N+](=O)[O-])cc1[N+](=O)[O-] | 9.41 | -0.797
CC(C)=N/N=C(\N)N[N+](=O)[O-] | 6.06 | 1.06
COc1ccc(C2=NCC(CBr)S2)cc1 (stereo unspecified) | 4.09 | -7.32
Cc1ccc(NP(=O)(Oc2ccccc2)Oc2ccccc2)nc1 | 19.9 | 2
CCc1ccc(OP(C)(=O)Nc2cccnc2)cc1 (stereo unspecified) | -5.51 | -1.65
O=[N+]([O-])c1cc([N+](=O)[O-])c(CCNc2ccccc2)c([N+](=O)[O-])c1 | 14.1 | -1.99
O=C(OCCCN1CCCC1)C(O)(c1ccccc1)C1CCCCC1 (stereo unspecified) | -10.1 | 2.29
O=C(NC(Sc1ccncn1)C(Cl)(Cl)Cl)c1ccccc1 (stereo unspecified) | 18.3 | 11.6
Nc1cc(N)c2nonc2c1[N+](=O)[O-] | -9.63 | -2.36
CC(C)CC(=O)NC(Sc1ccc(Cl)cc1)C(Cl)(Cl)Cl (stereo unspecified) | -21.8 | -0.815
O=[N+]([O-])c1cc([N+](=O)[O-])c(Nc2ccccn2)c([N+](=O)[O-])c1 | -5.12 | -8.23
CN(C(=O)Cc1ccc(Cl)c(Cl)c1)[C@H]1CCCC[C@H]1N1CCCC1 | 5.84 | 6.75
COc1ccccc1OP(C)(=O)Nc1ccc(Br)cc1 (stereo unspecified) | 2.46 | -1.16
NC(=O)c1cc([N+](=O)[O-])cc([N+](=O)[O-])c1N | 6.46 | 11.6
Clc1ccc(Cl)c(NC2=NCC(CBr)S2)c1 (stereo unspecified) | -22.7 | -6.18
COc1ccccc1OP(=O)(Nc1ccc(C)cn1)Oc1ccccc1OC | 28.5 | -0.195
Cc1ccc(OP(=O)(Nc2nccs2)Oc2ccc(C)cc2)cc1 | 16.9 | 2.05
Nc1cccc2ccc([As](=O)(O)O)cc12 | -1.06 | 30.6
CCCCCCCCCCCCCCCC1C[N+](C)(C)CCOP(C)(=O)O1 (stereo unspecified) | -74.3 | -20.5
CP(=O)(Nc1ccc(Cl)cc1Cl)Oc1ccccc1 (stereo unspecified) | -19.5 | -6.93

Compound | OD600 change [%] | RFP signal change [%]
CP(=O)(OCCOc1ccccc1)OCCOc1ccccc1 | -17.1 | 4.6
CN(C(=O)Cc1ccccc1)C1CC[C@@]2(CCCO2)C[C@@H]1N1CCCC1 (stereo partly specified) | -5 | 3.58
O=C1C(O)=C([N+](=O)[O-])C(=O)C(O)=C1[N+](=O)[O-] | 20.6 | 3.86
O=P(Nc1nc2ccc(Cl)cc2s1)(c1ccccc1)c1ccccc1 | -42.2 | -15.4
Cc1cc(C)cc(OP(C)(=O)Nc2cccc(C(F)(F)F)c2)c1 (stereo unspecified) | 6.82 | 0.454
CN(C)P(=O)(N(C)C)n1c(Nc2ccccc2)nnc1-c1ccccc1 | -48.5 | 22.1
CC(=O)Nc1ccc([As](=O)(O)O)cc1 | 12.6 | 1.81
O=C(O)c1ccccc1[As](=O)(O)O | 2.79 | -6.05
CCCC1OP(N)(=O)OCC1CC (stereo unspecified) | 10 | 9.85
CCn1c(=O)n(C2CCN(CC3CCCCCCC3)C[C@H]2CO)c2ccccc21 (stereo partly specified) | -9.04 | 0.481
Cc1ccc(NP(=O)(Oc2ccccc2F)Oc2ccccc2F)nc1 | 12.9 | 2.66
COC(=O)C1(C)COP(=O)(N2CCCCCC2)OC1 (stereo unspecified) | 8.37 | -3.34
CC(C)c1ccc(OP(=O)(Nc2ccccn2)Oc2ccccc2F)cc1 (stereo unspecified) | -4.04 | 4.91
COc1ccccc1OP(C)(=O)Nc1cc(Cl)ccc1C (stereo unspecified) | -13.4 | -4.36
CC(C)NC(=O)NP(=O)(Oc1ccccc1)Oc1ccccc1 | 6.75 | 0.235
O=C(OC1CN2CCC1CC2)c1cccc2[nH]cnc12 (stereo unspecified) | 9.39 | 1.15
Cc1cc(C)cc(OP(C)(N)=O)c1 (stereo unspecified) | 6.66 | 2.87
O=[N+]([O-])c1cc([N+](=O)[O-])c(Nc2cccnc2)c([N+](=O)[O-])c1 | 6.94 | -16
C[As](=O)(O)c1cccc(C(=O)O)c1 | 11 | -1.27
O=[As](O)(c1ccc(O)cc1)c1ccccc1O | 3.67 | -0.278
O=[N+]([O-])c1ccc(-c2cc([N+](=O)[O-])c(O)c([N+](=O)[O-])c2)cc1 | -78.6 | -20.8
COc1cc(C(=O)NCC2(N3CCOCC3)CCCCC2)ccc1OCC(C)C | -13.2 | -0.427
[N-]=[N+]=NC1CCCCC1NC(=O)c1cc([N+](=O)[O-])cc([N+](=O)[O-])c1 (stereo unspecified) | 12.2 | 11.9
Cc1ccc(OP(=O)(Nc2ccc([N+](=O)[O-])cn2)Oc2ccc(C)cc2)cc1 | 14.6 | 4.62
CC(C)(C)c1ccc(OP(C)(=O)Nc2ccc(SC(F)(F)F)cc2)cc1 (stereo unspecified) | -10.2 | -0.615

Compound | OD600 change [%] | RFP signal change [%]
Cc1cccc(C)c1OP(C)(N)=O (stereo unspecified) | 6.3 | 1.21
O=[N+]([O-])c1ccc2c(c1)C=Nc1ccccc1O2 | -21.4 | 16.5
Cc1ccc2nc3c(c(C)c2c1)CC(C(Cl)Cl)S3 (stereo unspecified) | 0.875 | 0.513
COc1ccc(N/C(=N/P(=O)(N2CCOCC2)N2CCOCC2)N2CCOCC2)cc1 | 9.1 | 1.66
COc1ccccc1-c1ccccn1.O=[N+]([O-])c1cc([N+](=O)[O-])c(O)c([N+](=O)[O-])c1 | 4.27 | -1.13
Cc1c2c(nc3ccccc13)SC(C(Cl)Cl)C2 (stereo unspecified) | -71.9 | -17.3
Cc1cc(=O)[nH]c(N[N+](=O)[O-])n1 | 1.48 | -2.5
CCN(CC)CCCOC(=O)C(O)(c1ccccc1)c1ccccc1 | 4.96 | -3.75
O=P1(N(CCCl)CCCl)OCCCN1CCCl (stereo unspecified) | 13 | 3.56
O=P1(N(CCCl)CCCl)Nc2ccccc2N1 | 12 | 1.93
COc1ccc2nc(NP(=O)(c3ccccc3)c3ccccc3)sc2c1 | -4.12 | 2.13
COc1cc(I)ccc1[As](=O)(O)O | 7.03 | 7.11
O=C(OC1CN2CCC1CC2)c1cccc([N+](=O)[O-])c1 (stereo unspecified) | 20.4 | -1.4
CCOC(=O)c1ccc(NC(=O)C(C)(CCl)SC)cc1 (stereo unspecified) | 1.36 | 1.13
CCOC(=O)c1ccc(NP(C)(=O)Oc2ccc(OC)cc2)cc1 (stereo unspecified) | 5.44 | 2.58
CP(=O)(Nc1ccccn1)Oc1ccc(Cl)cc1 (stereo unspecified) | 9.36 | -4.2
COP1(=S)c2c(C)nn(CCC#N)c2N=C(c2ccc(F)cc2)N1C (stereo unspecified) | -0.035 | 0.426
CP(=O)(Nc1ccc(SC(F)(F)F)cc1)Oc1ccc(Cl)cc1 (stereo unspecified) | -56.9 | -12.9
CP(=O)(Oc1ccccc1)OC(c1ccccc1)C(F)(F)F (stereo unspecified) | 4.76 | -0.415
COC(=O)C1(C)COP(=O)(N2CCCC2)OC1 (stereo unspecified) | -4.9 | 1.65
CP(=O)(NC(=O)Nc1ccccc1)Oc1ccccc1 (stereo unspecified) | -1.15 | 0.37
O=C(Nc1ccncc1[N+](=O)[O-])c1ccc([N+](=O)[O-])cc1[N+](=O)[O-] | 8.11 | 7.1
CCOC(=O)Nc1cccc([As](=O)(O)O)c1 | 34.1 | 3.08
O=P(Nc1ccccn1)(c1cccc2ccccc12)c1cccc2ccccc12 | 21.1 | -0.4
Cc1cc(SC(NC=O)C(Cl)(Cl)Cl)ncn1 (stereo unspecified) | 8.16 | -1.08

Compound | OD600 change [%] | RFP signal change [%]
COc1ccccc1OP(C)(=O)Nc1ccccc1 (stereo unspecified) | 17.3 | 5.49
CP(=O)(Nc1ccccc1Br)Oc1ccccc1 (stereo unspecified) | 3.04 | 3.46
O=[N+]([O-])c1ccc(Nc2ccc(Oc3ccc([N+](=O)[O-])cc3[N+](=O)[O-])cc2)c([N+](=O)[O-])c1 | 6.55 | 2.02
O=C(O)C(=O)c1ccc(N(CCCl)CCCl)cc1.c1ccc(Nc2ccccc2)cc1 | -4.99 | -1.73
CCOC(=O)Nc1ccc([As](=O)(O)O)c(O)c1 | 14.5 | 7.12
CC1CCNP(=O)(N(CCCl)CCCl)O1 (stereo unspecified) | 9.49 | 1.17
COP(=O)(OC)N1CC1c1ccccc1 (stereo unspecified) | 7.99 | 2.32
CCCCOc1ccc(C(=O)NCC2(N3CCCCC3)CCCCC2)cc1OC | 4.91 | -0.3
CN1CCCCC1COC(=O)C1(O)c2ccccc2CCc2ccccc21 (stereo unspecified) | 4.17 | -6.04
CCCOc1ccc(NP(C)(=O)Oc2ccc(Cl)cc2)cc1 (stereo unspecified) | -36.7 | -0.916
Nc1cccc([As](=O)(O)c2ccccc2)c1 | 9.75 | 0.37
O=[As](O)(c1cccs1)c1cccs1 | 8.73 | -0.401
NS(=O)(=O)c1cccc(NC(=O)COC(=O)C(O)(c2ccccc2)c2ccccc2)c1 | -3.35 | -2.33
CC1CCC(C(C)C)C(OP(=O)(Nc2ccccn2)c2ccccc2)C1 (stereo unspecified) | -60.4 | -18.1
Cc1ccc(C(=O)OC2CN3CCC2CC3)cc1 (stereo unspecified) | 22.5 | 2.67
CN(C)C1(CNC(=O)c2ccc(S(C)(=O)=O)cc2)CCCCC1 | 3.59 | 3.31
O=[N+]([O-])c1cc([N+](=O)[O-])c(Nc2nnnn2CCO)c([N+](=O)[O-])c1 | -0.554 | -4.45
CCOC(=O)C(CC)C1=NC(C)(C)Cc2ccccc21.O=[N+]([O-])c1cc([N+](=O)[O-])c(O)c([N+](=O)[O-])c1 (stereo unspecified) | -4.25 | -8.34
O=C(/C=C/c1ccccc1)OC1CN2CCC1CC2 (stereo unspecified) | 3.66 | -0.0369
CCCC1OP(=O)(Nc2ccccc2)OCC1CC (stereo unspecified) | 9.55 | 4.14
COc1ccccc1CNC(=O)COC(=O)C(O)(c1ccccc1)c1ccccc1 | -3.57 | -1.77
Cc1ccc(S(=O)(=O)N(CCCN)CCCc2c(C)nc(N)[nH]c2=O)cc1.O=[N+]([O-])c1cc([N+](=O)[O-])c(O)c([N+](=O)[O-])c1 | 4.38 | -3.81
CN(C(=O)Cc1ccc(Cl)c(Cl)c1)[C@@H]1CCCC[C@H]1N1CCCC1 | -2.53 | 1.92

Source: PubChem BioAssay AID720706 (Broad Institute, 2013)
